Values from PubChem BioAssay AID504764 (Drosophila RNAi Screening Center, 2011)

- Screen: 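Genes whose knock-down alters Notch-dependent transcription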 (primary screen)
- System: Drosophila Kc167 cells
- Knock-down reagent: long dsRNA against Drosophila genes
- Timing: about 5 days (4 days dsRNA, then 24 h after transfection)
- Treatment: transfection of constitutively active membrane-tethered Notch lacking the extracellular domain, read 24 h later
- Read-out: 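Light from a Notch-responsive E(spl)m3 luciferase reporter under active Notch, with control-promoter and no-Notch reporter wells to normalise; raw counts from paired wells a and b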
- Reading the numbers: induced reporter light, run 1, well a and induced reporter light, run 1, well b: higher = more light from the Notch target reporter with active Notch; control promoter light, run 1, well a and control promoter light, run 1, well b: higher = more light from the viral control promoter (cell number, transfection, viability); uninduced reporter light, run 1, well a: higher = more light from the Notch target reporter without active Notch
- Hit rule: 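Wells with low control signal or poorly matching duplicates excluded; duplicates averaged; per source plate, z beyond ±2 for induced/control log2 ratio or beyond ±1.8 for induced/uninduced marks a hit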
- Calls: active = modifier hit (raised or lowered Notch signal); inactive = not a hit
The screen tested about 22,000 reagents; shown is an unselected part of those that have a named target and a result. In the full data, 403 (1.9%) are marked active. 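Unnormalised raw counts per well; ratio z-scores behind the hit calls and whether each hit raises or lowers signal are not deposited.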 A number with no mark means an inactive call. The numbers tell different reagents against one gene apart. Names joined by + are all predicted targets of the reagent. Not given: the amount of reagent.

target gene	reagent	induced reporter light, run 1, well a	induced reporter light, run 1, well b	control promoter light, run 1, well a	control promoter light, run 1, well b	uninduced reporter light, run 1, well a
CG15515 (GeneID 43538)	1	1.15e5	1.33e5	2.03e5	1.71e5	11790
CG34251 (GeneID 5740860)	1	1.68e5	1.86e5	2.06e5	2.08e5	19695
CG34251 (GeneID 5740860)	2	2.14e5	1.92e5	2.43e5	2.69e5	16175
RpS23 (GeneID 36576)	1	68545	66535	71225	69005	5345
Lkb1 (GeneID 41673)	1	1.31e5	1.06e5	81865	65400	11115
CG32199 (GeneID 40028)	1	1.78e5	1.51e5	1.93e5	1.60e5	7960
CG3927 (GeneID 37576)	1	1.59e5	1.47e5	1.44e5	1.15e5	12120
CG43693 (GeneID 39231)	1	1.42e5	1.72e5	1.74e5	1.68e5	12720
CG43693 (GeneID 39231)	2	1.54e5	1.19e5	93670	38645	8580
Mlp84B (GeneID 40849)	1	72785	80930	77510	65565	4515
GatB (GeneID 42861)	1	1.35e5	1.49e5	2.14e5	1.93e5	12050
CG4598 (GeneID 34315)	1	1.49e5	1.70e5	81780	97200	18630
CG17575 (GeneID 36414)	1	73070	89280	1.28e5	90700	7055
CG14277 (GeneID 34129)	1	1.55e5	1.87e5	93945	1.30e5	24865
UQCR-C1 (GeneID 41800)	1	1.27e5	1.18e5	79500	91695	9220
PK2-R1 (GeneID 41639)	1	1.93e5	2.00e5	1.92e5	2.13e5	15270
CG15293 (GeneID 34828)	1	1.44e5	1.33e5	1.51e5	1.72e5	12100
CG11672 (GeneID 40977)	1	1.04e5	1.01e5	96365	67650	7820
AIMP2 (GeneID 39690)	1	1.16e5	1.53e5	85540	86790	8320
Scr (GeneID 40833)	1	8545	9645	7042	5375	3395
Isha (GeneID 37411)	1	53350	55165	45965	41575	4435
mRpS31 (GeneID 39749)	1	1.74e5	2.25e5	1.31e5	1.10e5	13705
snoRNA:Me28S-A982b + Uhg4 + snoRNA:Me28S-G3255a + 1 more	1	35190	41175	45290	47230	2020
CG9471 (GeneID 41197)	1	3750	4910	4975	4495	1842
CG4612 (GeneID 37914)	1	1.43e5	1.62e5	1.57e5	1.93e5	13265
CG7094 (GeneID 35065)	1	1.31e5	1.19e5	1.43e5	1.62e5	10710
SP (GeneID 39494)	1	1.05e5	90200	1.55e5	1.54e5	7755
Sxl + CG14425 (retired record)	1	1.87e5	1.85e5	1.85e5	2.06e5	15090
Sxl + CG14425 (retired record)	2	79695 (active)	77855	83500	80350	5170
Rgk1 (retired record) (GeneID 37219)	1	1.15e5	82695	1.09e5	1.14e5	8530
Rgk1 (retired record) (GeneID 37219)	2	4650	4985	5255	5365	2845
Ir85a (GeneID 41052)	1	93690	1.11e5	1.01e5	66745	7355
CG12672 (GeneID 32781)	1	53675	49615	57270	57070	8178
DCTN3-p24 (GeneID 46074)	1	1.71e5	1.73e5	1.45e5	2.12e5	12665
